# Assay results taken from the supplement of paper PMC4962491.
# ± gives the standard deviation of the averaged measurements. Only a part is listed here, and it is no random draw. Single values are uncertain here, since repeats match poorly.
# Test system: FaDu
# Assay: mitochondrial oxygen consumption rate normalised to cell number, Z score over the library; higher = higher oxygen consumption (negative = OCR reduction)
# Details: treatment time 24 h, assay medium: 5 mM galactose, 5 mM pyruvate, 4 mM glutamine
# Protocol: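 Primary screen: FaDu cells were incubated 24 h with Pharmakon 1600 / TDI oncology set compounds at 2 or 10 uM. Mitochondrial-specific OCR (basal minus 2 uM antimycin A) was measured on a Seahorse XF96 in assay medium with 5 mM galactose, 5 mM pyruvate and 4 mM glutamine, then corrected for Hoechst cell number and expressed as a Z score […]. Compounds that cut cell number by >66% were excluded. Two repeats.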
structure (smiles),measurement,setting,value
CC(=O)O[C@H]1C[C@@]2(C)[C@@H](C[C@@H](O)[C@H]3[C@@]4(C)CC[C@@H](O)[C@@H](C)[C@@H]4CC[C@@]32C)/C1=C(\CCC=C(C)C)C(=O)O,mitochondrial oxygen consumption rate normalised,2 µM,-1.32 ± 1
CC(=O)N[C@@H](CS)C(=O)O,mitochondrial oxygen consumption rate normalised,2 µM,-0.912 ± 0.52
CC[C@H](C)C(=O)O[C@H]1C[C@@H](C)C=C2C=C[C@H](C)[C@H](CC[C@@H]3C[C@@H](O)CC(=O)O3)[C@H]21,mitochondrial oxygen consumption rate normalised,2 µM,-1.01 ± 0.61
CCN(CC)CCOC(=O)c1ccc(N)cc1,mitochondrial oxygen consumption rate normalised,2 µM,0.318 ± 0.53
CC(=O)O[C@H]1C[C@@H]2CC[C@@H]3[C@H](CC[C@@]4(C)[C@H]3C[C@H]([N+]3(C)CCCCC3)[C@@H]4OC(C)=O)[C@@]2(C)C[C@@H]1N1CCCCC1,mitochondrial oxygen consumption rate normalised,2 µM,-0.36 ± 0.069
Cc1cc(C)cc(OCC2CNC(=O)O2)c1 (stereo not given),mitochondrial oxygen consumption rate normalised,2 µM,-0.13 ± 1.2
C[C@@H](O)[C@H]1C(=O)N2C(C(=O)O)=C(S[C@@H]3CN[C@H](C(=O)N(C)C)C3)[C@H](C)[C@H]12,mitochondrial oxygen consumption rate normalised,2 µM,1.13 ± 0.24
C[C@@H]1O[C@@H](OC[C@H]2O[C@@H](Oc3c(-c4ccc(OCCO)c(OCCO)c4)oc4cc(OCCO)cc(O)c4c3=O)[C@H](O)[C@@H](O)[C@@H]2O)[C@H](O)[C@H](O)[C@H]1O,mitochondrial oxygen consumption rate normalised,2 µM,0.345 ± 0.4
CCN(CC)C(=O)/C(C#N)=C/c1cc(O)c(O)c([N+](=O)[O-])c1,mitochondrial oxygen consumption rate normalised,2 µM,-0.313 ± 1.1
C[C@]12C=CC(=O)C=C1CC[C@H]1[C@@H]3C[C@@H](O)[C@](O)(C(=O)CO)[C@@]3(C)C[C@H](O)[C@@]12F,mitochondrial oxygen consumption rate normalised,2 µM,0.298 ± 0.43
CC[C@H]1OC(=O)C[C@@H](O)[C@H](C)[C@@H](O[C@@H]2O[C@H](C)[C@@H](O)[C@H](N(C)C)[C@H]2O)[C@@H](CCN2C[C@H](C)C[C@H](C)C2)C[C@@H](C)C(=O)/C=C/C(C)=C/[C@@H]1CO[C@@H]1O[C@H](C)[C@@H](O)[C@@H](OC)[C@H]1OC,mitochondrial oxygen consumption rate normalised,2 µM,-0.426 ± 0.67
same,mitochondrial oxygen consumption rate normalised,10 µM,0.2667 ± 0.0014
CNCCCC12CCC(c3ccccc31)c1ccccc12,mitochondrial oxygen consumption rate normalised,2 µM,0.341 ± 0.52
OC(c1cc(C(F)(F)F)nc2c(C(F)(F)F)cccc12)C1CCCCN1 (stereo not given),mitochondrial oxygen consumption rate normalised,2 µM,0.469 ± 0.39
CCCCCC(=O)O[C@]1(C(C)=O)CC[C@H]2[C@@H]3CCC4=CC(=O)CC[C@]4(C)[C@H]3CC[C@@]21C,mitochondrial oxygen consumption rate normalised,2 µM,-0.203 ± 1.1
CCN1CCCC(OC(=O)C(c2ccccc2)c2ccccc2)C1 (stereo not given),mitochondrial oxygen consumption rate normalised,2 µM,-0.175 ± 0.86
CCCCCNC(=N)N/N=C/c1c[nH]c2ccc(OC)cc12,mitochondrial oxygen consumption rate normalised,2 µM,0.423 ± 0.075
O=C(Oc1ccccc1C(=O)O)c1ccccc1O,mitochondrial oxygen consumption rate normalised,2 µM,0.0702 ± 0.61
O=C(O)c1ccc(S(=O)(=O)N(Cl)Cl)cc1,mitochondrial oxygen consumption rate normalised,2 µM,-1.06 ± 0.76
COc1c(C)c2c(c(O)c1C/C=C(\C)CCC(=O)O)C(=O)OC2,mitochondrial oxygen consumption rate normalised,2 µM,0.427 ± 0.05
NCCNCCNCCN,mitochondrial oxygen consumption rate normalised,2 µM,-0.16 ± 0.46
CN(C/C=C/c1ccccc1)Cc1cccc2ccccc12,mitochondrial oxygen consumption rate normalised,2 µM,-0.368 ± 0.18
CC(=O)CCCCn1c(=O)c2c(ncn2C)n(C)c1=O,mitochondrial oxygen consumption rate normalised,2 µM,-0.145 ± 0.96
CN1C(=O)OC(C)(C)C1=O,mitochondrial oxygen consumption rate normalised,2 µM,-0.261 ± 0.081
C[C@H]1O[C@@H](n2cc(F)c(=O)[nH]c2=O)[C@H](O)[C@@H]1O,mitochondrial oxygen consumption rate normalised,2 µM,0.844 ± 1.4
O=C(O)c1cc(=O)[nH]c(=O)[nH]1,mitochondrial oxygen consumption rate normalised,2 µM,-0.929 ± 1.1
CC(=O)NCCCCCC(=O)O,mitochondrial oxygen consumption rate normalised,2 µM,-0.0632 ± 0.53
O=c1n(CCCN2CCN(c3cccc(Cl)c3)CC2)nc2ccccn12,mitochondrial oxygen consumption rate normalised,2 µM,0.899 ± 0.19
C=C[C@H]1CN2CC[C@H]1C[C@H]2[C@H](O)c1ccnc2ccc(OC)cc12,mitochondrial oxygen consumption rate normalised,2 µM,-0.355 ± 0.27
CC1(C)S[C@@H]2[C@H](NC(=O)[C@H](N)c3ccccc3)C(=O)N2[C@H]1C(=O)O,mitochondrial oxygen consumption rate normalised,2 µM,-0.0185 ± 1.1
Nc1cc(N2CCCCC2)nc(N)[n+]1[O-],mitochondrial oxygen consumption rate normalised,2 µM,0.102 ± 0.15
C[C@]12CCC(=O)C=C1[C@@H]1C[C@@H]1[C@H]1[C@@H]3[C@@H]4C[C@@H]4[C@@]4(CCC(=O)O4)[C@@]3(C)CC[C@@H]12,mitochondrial oxygen consumption rate normalised,2 µM,0.227 ± 1.3
Cc1ncc([N+](=O)[O-])n1CC(C)O (stereo not given),mitochondrial oxygen consumption rate normalised,2 µM,-0.317 ± 0.1
C/C=C(/C(=C/C)c1ccc(O)cc1)c1ccc(O)cc1,mitochondrial oxygen consumption rate normalised,2 µM,-0.692 ± 1.2
O=C(O)c1ccccc1OP(=O)(O)O,mitochondrial oxygen consumption rate normalised,2 µM,0.925 ± 1.2
CC1=C(/C=C/C(C)=C/C=C/C(C)=C/CO)C(C)(C)CCC1,mitochondrial oxygen consumption rate normalised,2 µM,0.62 ± 0.082
CC(=O)O[C@H]1C(=O)[C@@]2(C)[C@H]([C@H](OC(=O)c3ccccc3)[C@]3(O)C[C@H](OC(=O)[C@H](O)[C@@H](NC(=O)c4ccccc4)c4ccccc4)C(C)=C1C3(C)C)[C@]1(OC(C)=O)CO[C@@H]1C[C@@H]2O,mitochondrial oxygen consumption rate normalised,2 µM,0.397 ± 2
CC(=O)O[C@H]1C(=O)[C@@]2(C)[C@H]([C@H](OC(=O)c3ccccc3)[C@]3(O)C[C@H](OC(=O)[C@H](O)[C@@H](NC(=O)c4ccccc4)c4ccccc4)C(C)=C1C3(C)C)[C@]1(OC(C)=O)CO[C@@H]1C[C@@H]2O [Paclitaxel],mitochondrial oxygen consumption rate normalised,2 µM,-0.0387 ± 0.15
C/C=C/c1ccc(OC)cc1,mitochondrial oxygen consumption rate normalised,2 µM,0.203 ± 0.99
O[C@H]1[C@H](O)[C@@H](O)[C@H](O)[C@@H](O)[C@H]1O,mitochondrial oxygen consumption rate normalised,2 µM,-0.544 ± 0.63
CCCN(CCC)CCc1cccc2c1CC(=O)N2,mitochondrial oxygen consumption rate normalised,2 µM,0.776 ± 0.65
COc1cccc2c1C(=O)c1c(O)c3c(c(O)c1C2=O)C[C@@](O)(C(=O)CO)C[C@@H]3O[C@H]1C[C@H](N)[C@@H](O)[C@H](C)O1,mitochondrial oxygen consumption rate normalised,2 µM,-1.99 ± 0.022
same,mitochondrial oxygen consumption rate normalised,10 µM,-2.82 ± 0.22
Cc1nc2ccccn2c(=O)c1CCN1CCC(C(=O)c2ccc(F)cc2)CC1,mitochondrial oxygen consumption rate normalised,2 µM,0.205 ± 0.21
CSc1nc2cc(Cl)c(Oc3cccc(Cl)c3Cl)cc2[nH]1,mitochondrial oxygen consumption rate normalised,2 µM,0.0964 ± 0.46
O=C(CCNNC(=O)c1ccncc1)NCc1ccccc1,mitochondrial oxygen consumption rate normalised,2 µM,-0.121 ± 0.53
CC(C)(C)CC(C)(C)c1cc(Cc2cc(C(C)(C)CC(C)(C)C)cc(-n3nc4ccccc4n3)c2O)c(O)c(-n2nc3ccccc3n2)c1,mitochondrial oxygen consumption rate normalised,2 µM,0.442 ± 0.22
NC(=O)c1cnccn1,mitochondrial oxygen consumption rate normalised,2 µM,-0.254 ± 0.12
CC(C)OC(=O)C(C)(C)Oc1ccc(C(=O)c2ccc(Cl)cc2)cc1,mitochondrial oxygen consumption rate normalised,2 µM,-0.083 ± 0.062
CCOC(=S)SSC(=S)OCC,mitochondrial oxygen consumption rate normalised,2 µM,0.744 ± 0.72
Cc1cc2c(s1)Nc1ccccc1N=C2N1CCN(C)CC1,mitochondrial oxygen consumption rate normalised,2 µM,-0.748 ± 0.053
NC(=O)CC[C@H](N)C(=O)O,mitochondrial oxygen consumption rate normalised,2 µM,0.104 ± 0.48
O=C1c2ccccc2C(=O)C1c1ccc(Br)cc1,mitochondrial oxygen consumption rate normalised,2 µM,0.466 ± 0.045
CC=CC1=C(C(=O)O)N2C(=O)[C@@H](NC(=O)[C@H](N)c3ccc(O)cc3)[C@H]2SC1,mitochondrial oxygen consumption rate normalised,2 µM,0.749 ± 0.37
CC(=O)N(c1onc(C)c1C)S(=O)(=O)c1ccc(N)cc1,mitochondrial oxygen consumption rate normalised,2 µM,-0.284 ± 0.5
Cc1cc(O)cc(C)c1Cl,mitochondrial oxygen consumption rate normalised,2 µM,0.42 ± 0.029
Cc1cn(-c2cc(NC(=O)c3ccc(C)c(Nc4nccc(-c5cccnc5)n4)c3)cc(C(F)(F)F)c2)cn1 [Nilotinib],mitochondrial oxygen consumption rate normalised,2 µM,0.077 ± 0.28
Oc1cccc(O)c1,mitochondrial oxygen consumption rate normalised,2 µM,0.629 ± 0.54
CN1CCCN=C1/C=C/c1cccc(O)c1,mitochondrial oxygen consumption rate normalised,2 µM,0.202 ± 1
same,mitochondrial oxygen consumption rate normalised,10 µM,0.441 ± 0.03

# Reprinted from the results shown (four entries):
structure (smiles),measurement,setting,value
CCOC(=S)SSC(=S)OCC,mitochondrial oxygen consumption rate normalised,2 µM,0.744 ± 0.72
Cc1cc2c(s1)Nc1ccccc1N=C2N1CCN(C)CC1,mitochondrial oxygen consumption rate normalised,2 µM,-0.748 ± 0.053
NC(=O)CC[C@H](N)C(=O)O,mitochondrial oxygen consumption rate normalised,2 µM,0.104 ± 0.48
O=C1c2ccccc2C(=O)C1c1ccc(Br)cc1,mitochondrial oxygen consumption rate normalised,2 µM,0.466 ± 0.045
